One assay addresses T1, Flag-Myc-tagged Bcl-3 (UniProt P20749).
T1 sequence: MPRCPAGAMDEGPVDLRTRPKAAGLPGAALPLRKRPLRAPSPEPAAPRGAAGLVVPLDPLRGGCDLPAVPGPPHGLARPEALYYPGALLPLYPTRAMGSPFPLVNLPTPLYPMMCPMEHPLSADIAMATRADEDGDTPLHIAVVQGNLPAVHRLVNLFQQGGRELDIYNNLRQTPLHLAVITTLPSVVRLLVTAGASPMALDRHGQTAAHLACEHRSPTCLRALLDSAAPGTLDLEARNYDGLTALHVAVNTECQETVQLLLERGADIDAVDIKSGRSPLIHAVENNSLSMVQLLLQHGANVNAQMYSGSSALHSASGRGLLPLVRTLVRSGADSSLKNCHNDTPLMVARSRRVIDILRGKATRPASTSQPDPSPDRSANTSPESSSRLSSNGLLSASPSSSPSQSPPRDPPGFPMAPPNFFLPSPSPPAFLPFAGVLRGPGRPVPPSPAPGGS
As to the kind of experiment: co-IP; tagged Bcl-3 and tagged Smad3 constructs co-transfected in HEK293T; lysis buffer 20 mM Hepes pH 7.4, 0.5% Triton-X-100, 150 mM NaCl; immunoprecipitated with tag antibodies (Flag, HA or Myc) on protein A-Sepharose overnight at 4 °C; immunoblot. (A western blot detects proteins with antibodies after separation by electrophoresis.)

By UniProt entry, the sequences of proteins in these tests, tags left out.
UniProt P84022: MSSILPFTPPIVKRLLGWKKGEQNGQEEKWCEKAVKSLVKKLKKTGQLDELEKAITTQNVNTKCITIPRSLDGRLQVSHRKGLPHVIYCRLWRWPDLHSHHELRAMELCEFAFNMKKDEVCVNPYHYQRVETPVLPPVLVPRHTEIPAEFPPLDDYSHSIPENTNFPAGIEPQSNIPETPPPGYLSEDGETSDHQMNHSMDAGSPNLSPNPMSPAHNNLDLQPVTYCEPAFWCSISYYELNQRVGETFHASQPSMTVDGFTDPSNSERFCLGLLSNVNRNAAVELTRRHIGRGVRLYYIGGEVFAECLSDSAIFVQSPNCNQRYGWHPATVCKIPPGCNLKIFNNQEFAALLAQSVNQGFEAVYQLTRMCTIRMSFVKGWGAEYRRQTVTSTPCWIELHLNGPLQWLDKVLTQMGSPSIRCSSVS
UniProt Q15796: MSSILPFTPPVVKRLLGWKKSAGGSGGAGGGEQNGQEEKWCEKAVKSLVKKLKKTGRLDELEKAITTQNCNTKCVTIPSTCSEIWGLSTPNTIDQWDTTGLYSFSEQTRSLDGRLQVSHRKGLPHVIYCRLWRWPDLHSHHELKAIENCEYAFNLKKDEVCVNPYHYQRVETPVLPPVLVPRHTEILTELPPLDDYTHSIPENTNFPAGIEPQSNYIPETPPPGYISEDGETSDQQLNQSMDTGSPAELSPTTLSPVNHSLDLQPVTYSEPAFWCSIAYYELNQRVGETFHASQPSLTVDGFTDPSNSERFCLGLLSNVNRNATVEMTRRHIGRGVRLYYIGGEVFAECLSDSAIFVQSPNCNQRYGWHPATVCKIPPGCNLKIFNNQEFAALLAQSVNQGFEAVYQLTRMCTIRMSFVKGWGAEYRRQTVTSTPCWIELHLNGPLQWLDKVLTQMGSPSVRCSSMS

For assay [1], the target named is T2, hemagglutinin-tagged-Bcl-3 (UniProt P20749).
T2 sequence: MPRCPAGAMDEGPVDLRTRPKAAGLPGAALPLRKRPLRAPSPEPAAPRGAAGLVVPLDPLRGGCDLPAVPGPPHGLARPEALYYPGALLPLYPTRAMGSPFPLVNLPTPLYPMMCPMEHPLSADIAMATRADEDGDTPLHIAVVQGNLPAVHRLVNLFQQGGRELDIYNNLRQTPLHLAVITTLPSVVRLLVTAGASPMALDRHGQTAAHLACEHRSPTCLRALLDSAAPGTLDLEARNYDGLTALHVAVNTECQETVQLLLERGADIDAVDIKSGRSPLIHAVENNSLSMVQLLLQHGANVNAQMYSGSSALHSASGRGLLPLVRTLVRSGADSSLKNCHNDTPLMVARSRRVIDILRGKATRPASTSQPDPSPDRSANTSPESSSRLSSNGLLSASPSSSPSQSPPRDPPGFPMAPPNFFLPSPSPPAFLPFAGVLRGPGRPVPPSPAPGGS
As to the kind of experiment: co-IP; HA-Bcl-3 expressed in HEK293T, lysed 48 h after transfection; lysates immunoprecipitated with HA antibodies; endogenous partner detected by immunoblot.

The next assay deals with Flag-tagged Smad3 (UniProt P84022). As to the kind of experiment: co-IP; tagged Bcl-3 and tagged Smad3 constructs co-transfected in HEK293T; lysis buffer 20 mM Hepes pH 7.4, 0.5% Triton-X-100, 150 mM NaCl; immunoprecipitated with tag antibodies (Flag, HA or Myc) on protein A-Sepharose overnight at 4 °C; immunoblot.

Results are given in words; binding and its absence hold for the method and conditions named. In cells and extracts the contact can be indirect. Some entries that bind do so weakly or less than the wild type. Tags and fused reporters may be left off the sequences shown.

On to “Flag-tagged Smad3 (from UniProt P84022 1-425)”, for which the binding result in the assay with Flag-Myc-tagged Bcl-3 is on record as “binds”.
On to “endogenous Smad2 (from UniProt Q15796 1-467)”, for which the binding entry in assay [1] is given as “no binding”.

B1: hemagglutinin-tagged-Bcl-3 (protein, UniProt P20749 1-454)
chain: MPRCPAGAMDEGPVDLRTRPKAAGLPGAALPLRKRPLRAPSPEPAAPRGAAGLVVPLDPLRGGCDLPAVPGPPHGLARPEALYYPGALLPLYPTRAMGSPFPLVNLPTPLYPMMCPMEHPLSADIAMATRADEDGDTPLHIAVVQGNLPAVHRLVNLFQQGGRELDIYNNLRQTPLHLAVITTLPSVVRLLVTAGASPMALDRHGQTAAHLACEHRSPTCLRALLDSAAPGTLDLEARNYDGLTALHVAVNTECQETVQLLLERGADIDAVDIKSGRSPLIHAVENNSLSMVQLLLQHGANVNAQMYSGSSALHSASGRGLLPLVRTLVRSGADSSLKNCHNDTPLMVARSRRVIDILRGKATRPASTSQPDPSPDRSANTSPESSSRLSSNGLLSASPSSSPSQSPPRDPPGFPMAPPNFFLPSPSPPAFLPFAGVLRGPGRPVPPSPAPGGS
B1: the binding result with Flag-tagged Smad3 is recorded as “binds”.

Source of the values: article PMC5261001.
